These are yes or no findings as the source states them, for the method shown. Binding can be weak; no strength is given.
Key:
Experiment in all cases: MST; NfrA, HtrE or YhcD labelled with NHS ester fluorescent dye, 20 uM; serial dilutions of unlabelled human complement C3 in PBS; 5 min at room temperature; NanoTemper Monolith NT.115; both purified
HtrE (E. coli) = molecular target: T1, HtrE (E. coli) (UniProt P33129)
T1 sequence (chain, NHS ester fluorescent dye (in the MST assay only)): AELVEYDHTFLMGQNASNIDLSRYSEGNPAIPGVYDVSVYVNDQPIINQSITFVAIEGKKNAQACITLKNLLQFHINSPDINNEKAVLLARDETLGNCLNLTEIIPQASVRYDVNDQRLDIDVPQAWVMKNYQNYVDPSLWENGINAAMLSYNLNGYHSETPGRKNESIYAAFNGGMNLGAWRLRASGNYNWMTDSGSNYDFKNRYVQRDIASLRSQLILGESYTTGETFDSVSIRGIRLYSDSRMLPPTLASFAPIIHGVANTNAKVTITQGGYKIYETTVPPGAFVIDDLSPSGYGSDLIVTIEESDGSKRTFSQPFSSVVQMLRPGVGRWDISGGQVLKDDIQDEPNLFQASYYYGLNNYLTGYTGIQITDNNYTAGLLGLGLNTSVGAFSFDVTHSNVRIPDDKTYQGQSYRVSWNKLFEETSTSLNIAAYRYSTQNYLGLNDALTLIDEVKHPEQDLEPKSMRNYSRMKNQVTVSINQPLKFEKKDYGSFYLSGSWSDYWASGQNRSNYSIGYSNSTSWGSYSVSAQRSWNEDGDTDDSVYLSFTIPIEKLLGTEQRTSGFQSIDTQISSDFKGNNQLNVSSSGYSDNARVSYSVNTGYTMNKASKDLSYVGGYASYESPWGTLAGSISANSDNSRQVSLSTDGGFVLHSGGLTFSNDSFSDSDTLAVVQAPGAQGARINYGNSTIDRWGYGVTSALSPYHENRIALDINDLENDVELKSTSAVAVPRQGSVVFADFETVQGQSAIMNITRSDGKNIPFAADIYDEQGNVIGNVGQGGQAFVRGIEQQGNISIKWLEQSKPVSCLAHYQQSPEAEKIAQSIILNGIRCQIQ

YhcD (E. coli) = molecular target: T2, YhcD (E. coli) (UniProt P45420)
T2 sequence (chain, NHS ester fluorescent dye (in the MST assay only)): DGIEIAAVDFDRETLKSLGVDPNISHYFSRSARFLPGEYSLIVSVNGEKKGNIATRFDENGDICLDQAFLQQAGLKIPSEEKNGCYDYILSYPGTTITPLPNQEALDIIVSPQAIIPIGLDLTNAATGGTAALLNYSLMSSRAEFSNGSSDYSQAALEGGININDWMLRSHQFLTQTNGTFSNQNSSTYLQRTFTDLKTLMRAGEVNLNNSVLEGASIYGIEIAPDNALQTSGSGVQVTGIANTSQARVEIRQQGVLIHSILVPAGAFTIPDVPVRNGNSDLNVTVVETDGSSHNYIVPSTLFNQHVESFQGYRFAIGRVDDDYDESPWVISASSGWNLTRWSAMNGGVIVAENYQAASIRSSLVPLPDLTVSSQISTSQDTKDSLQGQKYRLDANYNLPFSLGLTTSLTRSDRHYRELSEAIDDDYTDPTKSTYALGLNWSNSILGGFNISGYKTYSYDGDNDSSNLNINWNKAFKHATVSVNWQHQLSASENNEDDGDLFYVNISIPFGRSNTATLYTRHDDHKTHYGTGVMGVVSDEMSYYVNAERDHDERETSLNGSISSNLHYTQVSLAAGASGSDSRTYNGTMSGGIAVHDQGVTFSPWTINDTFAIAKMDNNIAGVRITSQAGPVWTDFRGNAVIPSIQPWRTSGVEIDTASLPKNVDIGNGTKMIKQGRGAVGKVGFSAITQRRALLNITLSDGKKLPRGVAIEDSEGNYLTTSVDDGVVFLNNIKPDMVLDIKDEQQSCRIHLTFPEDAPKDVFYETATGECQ

NfrA (E. coli) = molecular target: T3, NfrA (E. coli) (UniProt P31600)
T3 sequence (chain, NHS ester fluorescent dye (in the MST assay only)): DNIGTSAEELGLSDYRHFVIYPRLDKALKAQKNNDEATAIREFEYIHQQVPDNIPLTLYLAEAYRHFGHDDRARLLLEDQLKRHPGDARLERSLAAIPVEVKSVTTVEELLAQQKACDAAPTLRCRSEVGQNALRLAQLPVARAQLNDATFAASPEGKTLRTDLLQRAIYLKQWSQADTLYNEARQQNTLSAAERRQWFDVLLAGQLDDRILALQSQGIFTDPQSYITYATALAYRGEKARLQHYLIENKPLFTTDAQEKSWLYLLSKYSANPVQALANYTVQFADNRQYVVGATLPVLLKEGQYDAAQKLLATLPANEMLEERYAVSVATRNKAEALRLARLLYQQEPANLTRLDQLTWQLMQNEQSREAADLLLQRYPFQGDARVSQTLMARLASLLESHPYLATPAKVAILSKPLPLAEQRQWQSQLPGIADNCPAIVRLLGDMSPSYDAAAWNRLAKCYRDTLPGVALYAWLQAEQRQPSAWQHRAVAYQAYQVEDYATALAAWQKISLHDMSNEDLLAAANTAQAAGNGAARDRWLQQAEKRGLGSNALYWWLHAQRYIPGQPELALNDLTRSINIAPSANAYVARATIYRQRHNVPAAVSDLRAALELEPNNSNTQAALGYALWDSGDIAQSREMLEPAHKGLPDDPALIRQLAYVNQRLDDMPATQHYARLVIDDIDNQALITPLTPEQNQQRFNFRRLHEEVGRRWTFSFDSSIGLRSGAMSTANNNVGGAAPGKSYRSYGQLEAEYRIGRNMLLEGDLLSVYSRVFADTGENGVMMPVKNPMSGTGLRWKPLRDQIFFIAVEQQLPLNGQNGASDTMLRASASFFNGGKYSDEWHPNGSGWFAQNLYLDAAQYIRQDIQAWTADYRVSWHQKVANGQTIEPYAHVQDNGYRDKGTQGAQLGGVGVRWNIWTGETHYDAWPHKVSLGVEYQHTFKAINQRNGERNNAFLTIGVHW

Measured: binding

human complement C3
binds: all assays above
